Experimental data: PubChem BioAssay AID743121 (NCATS, 2013)
The whole screen tested about 26,000 reagents; shown is a random part of them. In the full data, 167 (0.63%) were called active. 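Calls are per gene from RSA p-values that are not deposited; an individual active-marked siRNA can sensitise only weakly.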 Entries without a mark were called inactive. No sequences are given here.

Test: 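Partners whose loss is lethal together with topoisomerase I blockade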 (primary screen)
Cell system: MDA-MB-231 cells, a human breast cancer line
Knock-down reagent: single siRNA against human genes, 20 nM siRNA (0.8 pmol per well)
Duration: 120 h (drug added 48 h after transfection, read 72 h later)
Challenge: camptothecin 20 nM (about EC30) for 72 h; vehicle 0.1% DMSO in parallel plates
Measured: 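Cell viability by ATP luminescence (CellTiter-Glo) as % of non-targeting siRNA wells, and the log2 ratio of viability without drug over viability with camptothecin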
Scale: log2 vehicle/camptothecin viability: higher = stronger sensitisation to camptothecin; viability with camptothecin and viability without drug: higher = more viable cells
Hit rule: 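Each gene scored by redundant siRNA activity (RSA) over its individual siRNA ratios; a gene is called active at p < 0.001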

| target gene | PubChem SID | log2 vehicle/camptothecin viability | viability with camptothecin (% of control) | viability without drug (% of control) |
| --- | --- | --- | --- | --- |
| HCFC1R1 | SID164481958 | -0.233 | 66.6 | 56.7 |
| HCFC1R1 | SID164481960 | 0.174 | 51.8 | 58.5 |
| HCFC1R1 | SID164481962 | -0.4 | 90.8 | 68.8 |
| DOK4 | SID164486227 | -0.317 | 63.8 | 51.2 |
| DOK4 | SID164486230 | 0.084 | 85 | 90.1 |
| DOK4 | SID164486231 | 0.0115 | 52.3 | 52.7 |
| DOK4 | SID164486232 | -0.0129 | 53.3 | 52.8 |
| CIB3 | SID164565081 | -0.554 | 7.6 | 5.17 |
| CIB3 | SID164565083 | 0.133 | 58.5 | 64.1 |
| CIB3 | SID164565084 | -0.2 | 67.3 | 58.5 |
| CIB3 | SID164565085 | -0.19 | 62.8 | 55 |

Sorted by “viability without drug (% of control)” (highest first): 2 of the entries above.
| target gene | PubChem SID | log2 vehicle/camptothecin viability | viability with camptothecin (% of control) | viability without drug (% of control) |
| --- | --- | --- | --- | --- |
| HCFC1R1 | SID164481962 | -0.4 | 90.8 | 68.8 |
| HCFC1R1 | SID164481960 | 0.174 | 51.8 | 58.5 |

Further reagents:
| target gene | PubChem SID | log2 vehicle/camptothecin viability | viability with camptothecin (% of control) | viability without drug (% of control) |
| --- | --- | --- | --- | --- |
| RNF40 | SID164406496 | -0.139 | 97.5 | 88.6 |
| RNF40 | SID164406497 | -0.441 | 92.7 | 68.3 |
| RNF40 | SID164406498 | -0.0278 | 114 | 112 |
| RNF40 | SID164406499 | -0.415 | 57.3 | 42.9 |
| CEL | SID164357994 | -0.0625 | 45.4 | 43.5 |
| CEL | SID164357998 | -0.218 | 77.8 | 66.9 |
| CEL | SID164358000 | -0.164 | 95.2 | 85 |
| CEL | SID164358003 | -0.243 | 105 | 88.8 |
| KIF18B | SID164574282 | -0.143 | 83.9 | 76 |
| KIF18B | SID164574284 | -0.64 | 31.7 | 20.3 |
| KIF18B | SID164574285 | -0.0858 | 80.5 | 75.8 |
| KIF15 | SID164492190 | -0.518 | 117 | 82.1 |
| KIF15 | SID164492195 | -0.161 | 96.9 | 86.6 |
| KIF15 | SID164492197 | 0.0452 | 69.7 | 72 |
| HNRNPD | SID164369496 | -0.278 | 130 | 107 |
| HNRNPD | SID164369498 | 0.432 | 57.2 | 77.1 |
| HNRNPD | SID164369499 | -0.157 | 104 | 93.5 |
| HNRNPD | SID164369500 | -0.239 | 85.5 | 72.4 |
